Test results reported in publication PMC10163288.
The list shows a part of the results.

B1: il2ra_site1_1z92_sap_12_mot_b97f03aff7fbbdc090789c14133bd7a1_0001_1_000000018_0001_17_32_H_._86e43a77a489429e2f53cc35fed9f0aa_0001_1_0001_0000300026_0000001_0_0 … (protein)
chain: SSSSDRSEERVKMAIRDLKMRGDEEAVREVEEILEEAREKNDPRLFSEAARLAIEIQKEQSSSSS
B2: il2ra_site2_2erj_sap_27_mot_HHH_b1_07186_000000166_0001_43_57_H_._5dc92b74ccc7c8cc6eca4ada2eaf0777_0001_1_af2_0001_0000200013_0000001_0_0001 (protein)
chain: SSSSSDVEEEVRRLLEEAEELHKEGDLREVYRLAVEAMRLASENQDQELLELVAEVVKRLSSSSS
B3: il2ra_site1_3nfp_normal_mot_HHH_b2_02552_af2_000000235_0001_1_20_H_._HHH_b1_08742_af2_0001_0000200013_0000001_1_af2pred_0001_af2pred (protein)
chain: SSSSSEEAEELFEQAKREIEELLKNGNPNEAARVVDEAVRLLARLGNPELAERLLRFALKLSSSS
B4: il2ra_site1_3nfp_normal_mot_HHH_b1_05462_000000101_0001_1_15_H_._HHH_b2_03114_0001_0000100004_0000001_0_af2pred_0001_af2pred_1 (protein)
chain: SSSSSEAKELVEELLEQVKELLEKGDPEEARRLFEEAMKIAAKFNDEEALELVREFAQDESSSSS
B5: il2ra_site2_2erj_normal_mot_HHH_eva_0050_af2_000000198_0001_43_62_H_._HHH_b2_01308_0001_0000300017_0000001_0 (protein)
chain: SSSSSSREEEVRELLERVEEALERGDLELVYELLNEALHIAAEAGDQELQELVAEFLERFSSSSS
B6: il2ra_site2_2erj_sap_28_mot_HHH_b1_02841_000000060_0001_43_57_H_._HHH_b2_04121_0001_0000100007_0000001_0_0001_af2pred_0001_1_af2pred_swapped (protein)
chain: SSSSDEEEEEARELLEEAKKISDPREALLVLLEAVALAVRGGDDELLEELSRLAHEVLERSSSSS
B7: il2ra_site2_3nfp_sap_31_mot_HHH_b1_02065_af2_000000205_0001_1_18_H_._HHH_b2_06072_0001_0000800053_0000001_0_0001 (protein)
chain: SSSSDEVDRLIIRAYELLLNGNPEEARKLLEEALELARELGDEELEKHIEEALKALKMSISSSSS
B8: il2ra_site2_2erj_normal_mot_af86707857d369f3e1d85dcabc5f9321_0001_000000201_0001_14_29_H_._HHH_b2_07982_0001_0000100002_0000001_0 (protein)
chain: SSSSSDEEREEAEELIEEARQIPDPERAAAVAISAAHLAARANDEELLEEIRELFVRIYESSSSS
B9: il2ra_site1_1z92_normal_mot_HHH_b1_00561_af2_000000294_0001_1_19_H_._HHH_b2_04201_af2_0001_0000700058_0000001_0_af2pred_0001_af2pred_1 (protein)
chain: SSSSNKEEKLAKIIVRILIRLAGLDEEQKEELEELAEELLRRGVDEEELMRELTRLALELVSSSS
B10: il2ra_site2_3nfp_normal_mot_HHH_b1_05628_af2_000000064_0001_19_35_H_._HHH_b1_04724_af2_0001_0000200013_0000001_0_af2pred_0001_1_af2pred_swapped (protein)
chain: SSSSDEEEEVKELLREAKELLERGNPEEAEKVVRRAASIAAQLGDHELFAAASRLMEEIHNSSSS
B11: il2ra_site1_1z92_sap_17_mot_HHH_b1_05862_af2_000000270_0001_22_38_H_._HHH_b1_05895_0001_0000300010_0000001_0_0001_af2pred_0001_af2pred_1 (protein)
chain: DEEELIEKLEEAAKNRDVELLKELLEELLELLGTPAIEFMLRQFERKLRRDEEAAVKLVRRSVEL
B12: il2ra_site1_1z92_normal_mot_HHH_b1_06795_af2_000000041_0001_42_56_H_._2874ac36c98298a0dc4d99a960bb3065_0001_af2_0001_0000100013_0000001_0 (protein)
chain: DHRFLAEAVIRKIKRGDEESVEKLVERLSRAAGIPPEEVLKLLLELLRELGDPEAVEFIEELLRR
B13: il2ra_site2_2erj_normal_mot_HHH_b1_03833_000000078_0001_1_20_H_._HHH_b1_04418_0002_0000100001_0000001_0 (protein)
chain: SSSSDEEEEERVRELIEKLEELLERNDEERLHKLAWEVLRTLHELGDPRLARIIRAVAQFLSSSS
B14: il2ra_site2_2erj_normal_mot_HHH_b1_07067_af2_000000253_0001_18_33_H_._HEEHE_2110_af2_0001_0000200001_0000001_0_1_af2pred_0001_af2pred (protein)
chain: DAEELLRRYIEFVSEAADIKSFSIEEHNGKITVTVHGDEAEALTAALHIEFFAERAGIDLEVEVE
B15: il2ra_site2_2erj_normal_mot_HHH_b2_02727_000000149_0001_42_55_H_._HHH_b1_01540_0001_0000300008_0000001_1_af2pred_0001_1_af2pred_swapped (protein)
chain: SSSSDAERLAERAKRAAKIAEELGNPEEARLLLELVAEELEELGNPELAEELRELLQELKSSSSS
B16: il2ra_site2_2erj_normal_mot_15580975d4dd9e5733d814788d639b64_0001_000000240_0001_17_31_H_._HHH_b1_04687_af2_0001_0000700006_0000001_0 (protein)
chain: SSSSDEDEERIKELLEEAEELLKRGNPAQAQRVLAEAAELVHELGNEELAELINRLMQSLMSSSS
B17: il2ra_site2_2erj_sap_32_mot_HHH_b2_01204_af2_000000051_0001_19_34_H_._HHH_b1_05381_0001_0000300037_0000001_0_0001_af2pred_0001_1_af2pred_swapped (protein)
chain: SSSSDEEELEQLVERLAKELGASEEAKELAELSAKNLKEAGHSEEEIELFLRLLLELDTRRSSSS
B18: il2ra_site2_3nfp_normal_mot_HHH_b1_03557_000000106_0001_41_55_H_._HHH_b1_06663_0001_0000200010_0000001_0 (protein)
chain: SSSSSDEEIRELLEEIEEAIKRGDEERVRELLREVAQLIWEAGDHELFAKLAELLFALQRSSSSS
B19: il2ra_site1_1z92_normal_mot_0a69b5c9b02373fb877a90f2b4b0d8e1_0001_1_af2_000000257_0001_17_32_H_._5511cb2176c827d1feb3066af2f534d5_0001_af2_0001_0000300018_00000 … (protein)
chain: PEELAEKARELLENGNPEEAEKVLEKLAREQGDEEAFKRDLEKAERFLGNPEKALYALIKALARD
B20: il2ra_site2_2erj_normal_mot_HHH_b1_06608_000000059_0001_22_39_H_._HHH_b1_04589_0001_0000100001_0000001_0 (protein)
chain: SSSSDEEEVRELIKQAEELLEEGDPEKASEVVARAAFLVIELGNVELARRLFELAREIFELSSSS
B21: il2ra_site2_3nfp_normal_mot_HHH_b1_04787_000000220_0001_23_40_H_._HHH_b1_06980_af2_0001_0000300035_0000001_0 (protein)
chain: SSSSDVEELLREIEELLERGDTHEALELLEEAHKLALERNDEELVRLVLELYELIVELYDSSSSS
B22: il2ra_site1_2b5i_normal_mot_HHH_b2_04910_000000118_0001_1_19_H_._HHH_b1_06419_0001_0000300019_0000001_0_af2pred_0001_af2pred (protein)
chain: SSSSSEEARKILELIEEADKLFKEGNEEEARELLERAKELAEERGSESLLRLVEAALRELSSSSS
B23: il2ra_site2_3nfp_normal_mot_HHH_b2_01155_000000159_0001_38_52_H_._HHH_b2_02810_0001_0000200010_0000001_0 (protein)
chain: SSSSDEEVEEEVERLLEEAKKIEDRREVLKLLARALELAWENRDSELFMLIAEVAFELHKSSSSS
B24: il2ra_site1_2b5i_sap_10_mot_HHH_b2_00070_000000071_0001_43_56_H_._141e4e16e42c7d9bf1d4740829940245_0001_1_0001_0000600046_0000001_0_0001_af2pred_0001_af2pred_1 (protein)
chain: SSSSDDELVKEVDKLYLQASRAFLRGNPEEARELVEEALELARENNDEEIVRQLEEMLKLLSSSS

These binders were tested against il2ra, P01589 (assay: yeast display titration).

Apparent Kd, inactive:
B1 no binding seen
B2 no binding seen
B3 no binding seen
B4 no binding seen
B5 no binding seen
B6 no binding seen
B7 no binding seen
B8 no binding seen
B9 no binding seen
B10 no binding seen
B11 no binding seen
B12 no binding seen
B13 no binding seen
B14 no binding seen
B15 no binding seen
B16 no binding seen
B17 no binding seen
B18 no binding seen
B19 no binding seen
B20 no binding seen
B21 no binding seen
B22 no binding seen
B23 no binding seen
B24 no binding seen

5 neighbouring records already listed, for reference:
Apparent Kd, inactive:
B8 no binding seen
B9 no binding seen
B10 no binding seen
B11 no binding seen
B12 no binding seen
